Test results taken from patent US7547662.
These are yes or no findings as the source states them, for the method shown. Some entries that bind do so weakly or less than the wild type.

Protein sequences, listed by entry. Tags and fused reporters are not part of them. Residues count along the entry.
UniProt P00760, residues 24-246: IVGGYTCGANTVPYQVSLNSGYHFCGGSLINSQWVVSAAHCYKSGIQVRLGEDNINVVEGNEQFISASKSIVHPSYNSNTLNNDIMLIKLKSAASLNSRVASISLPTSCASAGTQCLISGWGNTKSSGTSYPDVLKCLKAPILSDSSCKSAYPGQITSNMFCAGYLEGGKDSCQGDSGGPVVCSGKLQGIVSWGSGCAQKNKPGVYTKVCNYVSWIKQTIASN

Experiments:
[1] = molecular target: Bovine trypsin (Sigma Chemical Co.) (bovine) (UniProt P00760); experiment: library screen and ITC
[2] = molecular target: Bovine trypsin (Sigma Chemical Co.) (bovine) (UniProt P00760); experiment: plate screen, adsorbed lysate protein probed with Oregon Green labelled bovine trypsin
[3] = molecular target: Bovine trypsin (Sigma Chemical Co.) (bovine) (UniProt P00760); experiment: ITC

Measured: binding

B1: Loop i variant from library screening (parental binding agent with loop i RYLRYPS, SEQ ID NO:33) (designed binder, not shown: small tags and cut ends)
chain: MDVQLQASGGGSVQAGGSLRLSCAASRYLRYPSCAGWFRQAPGKEREGVAAINAGAAGTSYADSVKGRFTISQLAGAANVYLLMNSLEPEDTAIYYCAAGHAGAAGAATCGHGLSTAGAAGAPWGQGTQVTVSS
binds: all assays above
